Data: PMC4493104
No constants are given. Whether binding was seen depends on the method and setting. In cells and extracts the contact can be indirect. For some assays here: A result given as binding can be weak or reduced; the word gives no strength. For some assays here: Sequences can lack the tags named with a protein.

The chains behind the UniProt entries cited, without tags or fusion partners. Where a name states a change or a piece, a line headed by the entry shows the natural chain unless it says otherwise.
UniProt O94623: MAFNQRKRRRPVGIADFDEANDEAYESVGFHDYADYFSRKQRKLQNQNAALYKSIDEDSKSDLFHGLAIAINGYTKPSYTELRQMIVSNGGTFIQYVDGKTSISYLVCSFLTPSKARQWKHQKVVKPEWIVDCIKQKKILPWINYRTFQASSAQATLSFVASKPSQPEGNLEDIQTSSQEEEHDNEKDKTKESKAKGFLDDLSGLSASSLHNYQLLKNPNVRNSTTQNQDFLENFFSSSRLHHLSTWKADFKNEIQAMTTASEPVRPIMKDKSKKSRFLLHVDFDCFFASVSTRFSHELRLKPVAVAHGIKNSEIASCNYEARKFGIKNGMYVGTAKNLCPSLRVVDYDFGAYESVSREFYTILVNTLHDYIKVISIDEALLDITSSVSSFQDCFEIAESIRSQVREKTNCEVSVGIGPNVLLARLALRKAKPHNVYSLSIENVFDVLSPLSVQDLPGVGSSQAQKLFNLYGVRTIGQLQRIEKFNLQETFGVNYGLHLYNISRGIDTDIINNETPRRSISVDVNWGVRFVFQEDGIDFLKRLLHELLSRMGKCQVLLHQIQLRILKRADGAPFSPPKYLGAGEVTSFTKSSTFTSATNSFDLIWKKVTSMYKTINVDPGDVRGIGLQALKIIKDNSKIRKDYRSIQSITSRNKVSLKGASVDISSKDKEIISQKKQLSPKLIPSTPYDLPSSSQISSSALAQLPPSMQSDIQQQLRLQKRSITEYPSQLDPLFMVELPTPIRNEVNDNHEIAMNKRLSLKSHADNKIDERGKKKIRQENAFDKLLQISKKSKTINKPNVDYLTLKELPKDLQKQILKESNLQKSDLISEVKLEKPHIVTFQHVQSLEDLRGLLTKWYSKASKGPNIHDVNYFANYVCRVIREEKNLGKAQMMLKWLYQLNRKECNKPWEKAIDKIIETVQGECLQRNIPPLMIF

B1: Cdc1 (protein, UniProt P87324 1-462)
chain: MVEVRHSIPCEETKRLELSLSQQTYSQQYASIYFARLTALRPRITEAASKKWPDKQRLERVLDVKSDEDCWVVATAYMTTALKPNVMNDVTQLHTIVTTTEESPYVSPEDAASGDIEYALEDDYGRIDCSGSFLYDAGVVTGVVLAVLGHEDEQGRFVVVDVCFPGIFSHSIPMTTDESQAQPEYIAAVSGLGLSNDGIEGIQVHQLVDFLRGTLPHVSSFSPSSIKRLIILGNCLAPSIEIADSASASVPIGKKKVKRYGYDTSAYNPNPTFQLDNFLDQVCSSIDVTLMPGPYDYSSTILPQQPLHPALLTKSKVWLGSSLQTVTNPTWLSLGNHFVLATSGQNINDLRKYHPKKSSLQCMENTLLWNHITPTSPDTLWCYPFTDKDTFVMEEMPDLYLCGNQPKFGCKTVINEGNRIQLVSVPEFRKTGVLVLINMHTLNVEIIQFRPMSVKAETPITS

Experiments:
[1] = target: T1, Pop1 (V5-tagged, pop1^V5) (fission yeast) (UniProt P87060); assay: co-IP; whole cell extracts (LiNi method, EBL buffer) of fission yeast strains; immunoprecipitation of V5-tagged Pop1 or Pop2 with rabbit anti-V5 on anti-rabbit IgG magnetic beads, Rev1 forms detected by anti-flag blot; untagged strain or rabbit normal IgG as negative control; asynchronous and cdc25-synchronized cultures
T1 sequence: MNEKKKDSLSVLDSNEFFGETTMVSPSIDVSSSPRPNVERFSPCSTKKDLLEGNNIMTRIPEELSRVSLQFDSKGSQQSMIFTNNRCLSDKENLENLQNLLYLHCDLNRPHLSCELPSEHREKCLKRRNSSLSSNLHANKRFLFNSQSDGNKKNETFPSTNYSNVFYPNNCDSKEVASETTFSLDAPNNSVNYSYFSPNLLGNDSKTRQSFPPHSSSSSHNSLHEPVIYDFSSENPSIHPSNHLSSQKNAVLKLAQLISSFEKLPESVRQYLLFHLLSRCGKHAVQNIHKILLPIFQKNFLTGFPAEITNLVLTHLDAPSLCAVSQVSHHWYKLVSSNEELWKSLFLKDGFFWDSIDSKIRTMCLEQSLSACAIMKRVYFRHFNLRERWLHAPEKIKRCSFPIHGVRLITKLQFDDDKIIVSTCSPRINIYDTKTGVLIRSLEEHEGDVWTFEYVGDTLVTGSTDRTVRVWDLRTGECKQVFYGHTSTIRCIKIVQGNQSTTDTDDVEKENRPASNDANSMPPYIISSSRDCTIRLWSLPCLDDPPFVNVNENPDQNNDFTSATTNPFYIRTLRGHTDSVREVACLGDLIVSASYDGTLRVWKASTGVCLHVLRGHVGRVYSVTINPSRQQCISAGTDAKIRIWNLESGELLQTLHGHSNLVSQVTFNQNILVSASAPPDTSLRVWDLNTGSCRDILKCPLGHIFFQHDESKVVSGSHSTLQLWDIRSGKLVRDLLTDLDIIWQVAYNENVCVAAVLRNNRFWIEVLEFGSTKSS

[2] = target: Rev1dK internal deletion mutant (Δ761–797), flag-tagged (rev1dK^flag) (fission yeast) (UniProt O94623); assay: co-IP; immunoprecipitation assay from fission yeast extracts; bait, tags and antibodies shown only in S2 Fig and S5 Fig

Molecule	binding [1]	binding [2]
Rev1dK internal deletion mutant (Δ761–797), flag-tagged (rev1dK^flag) (from UniProt O94623)	no binding	
B1		binds
